Drawing on the supplement of paper PMC6411743, this text covers NP40-soluble protein abundance for one compound.

± gives the standard deviation of the averaged measurements. Some of the results follow.

The experiment concerns the target T1, A0A087WTW0|A0A087WVR3|Q96T88 and related entries (UniProt Q96T88).
T1 sequence (whole entry): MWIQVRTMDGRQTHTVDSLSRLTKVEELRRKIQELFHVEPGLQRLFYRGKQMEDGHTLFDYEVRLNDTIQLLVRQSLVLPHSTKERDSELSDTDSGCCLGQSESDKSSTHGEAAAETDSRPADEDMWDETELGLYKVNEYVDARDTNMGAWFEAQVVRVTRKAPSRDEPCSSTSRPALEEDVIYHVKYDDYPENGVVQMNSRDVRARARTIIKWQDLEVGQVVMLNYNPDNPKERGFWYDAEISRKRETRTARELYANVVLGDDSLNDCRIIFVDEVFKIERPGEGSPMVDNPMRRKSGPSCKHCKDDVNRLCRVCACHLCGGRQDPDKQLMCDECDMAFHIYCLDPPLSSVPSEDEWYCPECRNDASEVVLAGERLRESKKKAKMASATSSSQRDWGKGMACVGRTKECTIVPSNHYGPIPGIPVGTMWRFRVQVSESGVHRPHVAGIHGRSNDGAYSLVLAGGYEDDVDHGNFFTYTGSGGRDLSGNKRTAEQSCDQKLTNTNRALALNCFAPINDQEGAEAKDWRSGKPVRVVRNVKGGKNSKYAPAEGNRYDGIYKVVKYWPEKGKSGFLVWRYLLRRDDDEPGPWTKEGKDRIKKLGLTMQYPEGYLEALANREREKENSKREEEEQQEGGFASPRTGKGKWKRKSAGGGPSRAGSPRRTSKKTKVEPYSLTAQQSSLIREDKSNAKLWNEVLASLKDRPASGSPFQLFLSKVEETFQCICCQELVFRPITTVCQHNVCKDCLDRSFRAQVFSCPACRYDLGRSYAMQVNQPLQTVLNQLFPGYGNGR
The experiment in a line: NP40-soluble protein abundance relative to vehicle (solubility fold change) (ratio); higher = more soluble protein in presence of GTP. As to the method: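 Solubility proteome profiling in Jurkat crude lysate. Lysate was treated with Mg-GTP (0.1-10 mM) for 10 min at room temperature and 3 min at 37 °C, then solubilised with 0.8% NP40 and benzonase, followed by ultracentrifugation. Proteins were quantified by TMT10 LC-MS/MS; the value is the NP40-soluble abundance relative to the NP40-processed vehicle, from 3 independent experiments.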

For `Nc1nc2c(ncn2[C@@H]2O[C@H](COP(=O)(O)OP(=O)(O)OP(=O)(O)O)[C@@H](O)[C@H]2O)c(=O)[nH]1` [guanosine triphosphate], the NP40-soluble protein abundance was 1.04 ± 0.019 (concentration: 0.1mM); 1.07 ± 0.04 (concentration: 0.5mM); 1.09 ± 0.02 (concentration: 1mM); 1.09 ± 0.025 (concentration: 2mM); 1.169 ± 0.0067 (concentration: 4mM); 1.16 ± 0.02 (concentration: 6mM). Also, the NP40-soluble protein abundance worked out at 1.19 ± 0.026 (concentration: 8mM) and 1.16 ± 0.044 (concentration: 10mM).
